Values from PubChem BioAssay AID504791 (Drosophila RNAi Screening Center, 2011).
The deposit covers about 23,000 reagents; below is a random part of those with a known target gene and a result. In the full data, 199 (0.86%) are marked active. 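Plate-scaled ratios behind the calls are not deposited; printed light signals are raw; many rows marked increased or decreased are still called inactive.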 Reagent sequences are not shown. Not stated in the record: the direction of the score.

- Aim: 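Genes whose knock-down strengthens or weakens small-RNA reporter silencing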 (primary screen)
- Cell system: Drosophila S2-derived reporter cells
- Knock-down reagent: long dsRNA against Drosophila genes, about 150-250 ng dsRNA per well (siRNA assay); about 80-120 ng (miRNA assay)
- Timing: about 5 days (siRNA assay); about 4 days (miRNA assay)
- Treatment: copper sulfate induction of reporters: 25 µM (siRNA assay); 200 mM stated (miRNA assay), 1-2 days before reading
- Measurement: 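Per-well ratio of Renilla over firefly light, expressed relative to that plate's average ratio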
- Rule for the call: 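First-pass picks had plate-scaled ratios over 1.5 for the siRNA assay, over 1.6 for the miRNA assay, or under 0.6; two distinct dsRNAs had to score alike on retest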

no.	gene	DRSC id	stable siRNA reporter change	miRNA reporter change	stable assay Renilla, run 1 (luminescence)	stable assay firefly, run 1 (luminescence)	Outcome
1	CG5498	DRSC11608			6474	2.76e5	inactive
2	CG7860	DRSC20060			7831	4.63e5	inactive
3	cos (costa)	DRSC07598			22113	1.28e6	inactive
4	ham (hamlet)	DRSC02070			5794	3.28e5	inactive
5	ham (hamlet)	DRSC02512			4663	3.90e5	inactive
6	ham (hamlet)	DRSC02513			6183	3.39e5	inactive
7	CCT6 (Chaperonin containing TCP1 subunit 6)	DRSC20095			7550	3.07e5	inactive
8	CG17134	DRSC02583			7923	3.51e5	inactive
9	CG33461	DRSC22892			4427	3.87e5	inactive
10	IntS6 (Integrator 6)	DRSC18281			10995	7.58e5	inactive
11	CG31650	DRSC03140			21707	2.24e5	inactive
12	CG10177	DRSC14201			6514	2.70e5	inactive
13	FipoQ (F-box involved in polyQ pathogenesis)	DRSC15413			6998	4.19e5	inactive
14	TwdlQ (TweedleQ)	DRSC14745			5760	3.64e5	inactive
15	TwdlQ (TweedleQ)	DRSC23107			3691	3.24e5	inactive
16	CG9630	DRSC16527			7135	3.70e5	inactive
17	CG6656	DRSC16085			8487	4.10e5	inactive
18	Nos (Nitric oxide synthase)	DRSC03381			7582	4.90e5	inactive
19	CG17249	DRSC08517			10150	3.47e5	inactive
20	Polr3A (RNA polymerase III subunit A)	DRSC19766			4732	4.07e5	inactive
21	CG3640	DRSC04399			7451	5.58e5	inactive
22	ng1 (new glue 1)	DRSC18802			5136	3.74e5	inactive
23	Rubicon	DRSC17889			5983	2.41e5	inactive
24	OstDelta (Oligosaccharide transferase Delta subunit)	DRSC06980			8745	3.43e5	inactive
25	CG33125	DRSC00145			4880	3.43e5	inactive
26	Cul5 (Cullin 5)	DRSC14723			6974	3.60e5	inactive
27	Obp18a (Odorant-binding protein 18a)	DRSC19736			5671	3.66e5	inactive
28	CG4546	DRSC15593			6283	3.41e5	inactive
29	ix (intersex)	DRSC06325			5087	2.62e5	inactive
30	Ir52d (Ionotropic receptor 52d)	DRSC06264			6690	4.30e5	inactive
31	CG10140	DRSC09704			5684	2.96e5	inactive
32	Obp99a (Odorant-binding protein 99a)	DRSC15303			7782	5.17e5	inactive
33	CG3760	DRSC04415			2576	2.39e5	inactive
34	Rat1 (Rat1 5'-3' exoribonuclease)	DRSC02044			13041	5.42e5	inactive
35	CG15213	DRSC10213			5216	3.79e5	inactive
36	Arpc4 (Actin-related protein 2/3 complex, subunit 4)	DRSC02917			7715	4.41e5	inactive
37	l(1)G0469 (lethal (1) G0469)	DRSC19412			8250	6.71e5	inactive
38	l(1)G0469 (lethal (1) G0469)	DRSC19462			5371	4.34e5	inactive
39	mEFTu2 (mitochondrial translation elongation factor Tu 2)	DRSC06163			28984	2.35e6	inactive
40	CG4480	DRSC02750			8169	5.73e5	inactive
41	Sf3b5 (Splicing factor 3b subunit 5)	DRSC14460		reporter ratio lowered past the hit cutoff	8784	8.25e5	active
42	Jhbp5 (Juvenile hormone binding protein 5)	DRSC14240			6935	3.43e5	inactive
43	Cpes (Ceramide phosphoethanolamine synthase)	DRSC04475			18133	9.48e5	inactive
44	CG30270	DRSC22890			4240	3.98e5	inactive
45	CG11349	DRSC08179			5574	3.63e5	inactive
46	eIF4E1 (eukaryotic translation initiation factor 4E1)	DRSC11342			9294	5.28e5	inactive
47	fln (flightin)	DRSC11346			7591	3.16e5	inactive
48	CG11598	DRSC14331			6268	5.17e5	inactive
49	RhoGEF3 (retired record)	DRSC08266			5434	5.28e5	inactive
50	RhoGEF3 (retired record)	DRSC08353			7006	4.00e5	inactive
51	TrxT (Thioredoxin T)	DRSC22182	reporter ratio raised past the hit cutoff		6418	1.87e5	inactive
52	TrxT (Thioredoxin T)	DRSC23117			4551	3.07e5	inactive
53	her (hermaphrodite)	DRSC03543			14244	2.06e6	inactive
54	CG33111	DRSC14208			6602	2.66e5	inactive
55	CG33111	DRSC14444			6024	2.96e5	inactive
56	Atg2 (Autophagy-related 2)	DRSC08273			10481	5.15e5	inactive
57	wgn (wengen)	DRSC19998			5760	5.59e5	inactive

10 consecutive reagents from above, quoted:
no.	gene	DRSC id	stable siRNA reporter change	miRNA reporter change	stable assay Renilla, run 1 (luminescence)	stable assay firefly, run 1 (luminescence)	Outcome
31	CG10140	DRSC09704			5684	2.96e5	inactive
32	Obp99a (Odorant-binding protein 99a)	DRSC15303			7782	5.17e5	inactive
33	CG3760	DRSC04415			2576	2.39e5	inactive
34	Rat1 (Rat1 5'-3' exoribonuclease)	DRSC02044			13041	5.42e5	inactive
35	CG15213	DRSC10213			5216	3.79e5	inactive
36	Arpc4 (Actin-related protein 2/3 complex, subunit 4)	DRSC02917			7715	4.41e5	inactive
37	l(1)G0469 (lethal (1) G0469)	DRSC19412			8250	6.71e5	inactive
38	l(1)G0469 (lethal (1) G0469)	DRSC19462			5371	4.34e5	inactive
39	mEFTu2 (mitochondrial translation elongation factor Tu 2)	DRSC06163			28984	2.35e6	inactive
40	CG4480	DRSC02750			8169	5.73e5	inactive
